# The other results are listed elsewhere or left out.
# Sequences of proteins named here, by UniProt entry; tags and fusion partners are left off.
# UniProt Q0JBA9, entry or part of it: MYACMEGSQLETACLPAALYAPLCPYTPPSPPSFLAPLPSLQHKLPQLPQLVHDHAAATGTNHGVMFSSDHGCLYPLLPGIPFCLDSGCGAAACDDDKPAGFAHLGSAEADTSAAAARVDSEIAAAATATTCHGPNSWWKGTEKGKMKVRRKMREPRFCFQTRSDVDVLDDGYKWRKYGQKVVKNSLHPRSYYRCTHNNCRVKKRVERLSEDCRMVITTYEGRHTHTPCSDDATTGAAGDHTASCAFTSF
# Biological target: OsWRKY34 (Oryza sativa, UniProt Q0JBA9 1-250)
# Experiment: protein-binding microarray (RPBM); PBS, 2% BSA, 51.3 ng/ul salmon testes DNA, 50 uM zinc acetate, 200 nM TF, 25 C, 1 h; high values mean tight binding
# Conditions: protein: recombinant; tags: N-terminal polyhistidine and DsRed monomer fusion (pET32a); label: CyDye5-dUTP incorporated in the synthesized complementary strand; 3' TTTTT single-stranded linker to array surface; dsDNA, one strand shown
# Method in brief: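 Transcription factors, each fused N-terminally to a polyhistidine tag and DsRed, were expressed in E. coli BL21-CodonPlus and purified on Ni–NTA. A custom Agilent array was made double-stranded by primer extension with Cy5-dUTP and blocked with 2% BSA. It was incubated with 200 nM protein in PBS, 2% BSA, salmon testes DNA and 50 µM zinc acetate at 25 °C for 1 h, then washed. The binding signal is per-feature fluorescence intensity (arbitrary units) read on an Axon 4000B scanner.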
row,Sequence,binding signal
1,CCGACGATGTTTTCCTCATAGCTCCTGCATTCCAATTTCCCGGAGTCACCTAGTGCAG,8680 fluorescence intensity (a.u.)
2,CTGGGTGTGGGTGTGGGTCTGGGTCTGGGTGGAAGAGGAACGGAGTCACCTAGTGCAG,21200 fluorescence intensity (a.u.)
3,TCGTCTCGATATGTACACCCACACTGCCACATAAATCCTTCGGAGTCACCTAGTGCAG,9340 fluorescence intensity (a.u.)
4,GTTCGCCGTGGATTTCTTTTCTTGCGTCAGTGATACTGATCGGAGTCACCTAGTGCAG,8170 fluorescence intensity (a.u.)
5,TAGACCGACCAGTGAGCCCCTTGCTGTCATCTCCTATCCTCGGAGTCACCTAGTGCAG,8080 fluorescence intensity (a.u.)
6,TCCGCGGCCACGCCATCCGCTCCTACATCTCGCCGGGTGACGGAGTCACCTAGTGCAG,9350 fluorescence intensity (a.u.)
7,CTGAACACTCTATGCTGCAGGTCAACGCAAGCTCACTCAACGGAGTCACCTAGTGCAG,8380 fluorescence intensity (a.u.)
8,CAACTCTCTCTCTCTCTCTTTCTCTGCAGCTCCACCTTCTCGGAGTCACCTAGTGCAG,8690 fluorescence intensity (a.u.)
9,AATTGTGCTGTGGAGTTGTGATGTGGATTTGGGGTTCAATCGGAGTCACCTAGTGCAG,13700 fluorescence intensity (a.u.)
10,CCACCTCATCACCATGTACTCCCACTGCGCCGACCTCGCCCGGAGTCACCTAGTGCAG,9170 fluorescence intensity (a.u.)
11,TTGCTCTTCGACACCCCTGCTTCATGATCATGCTTTGCCTCGGAGTCACCTAGTGCAG,9730 fluorescence intensity (a.u.)
12,TTTTGCCACTATTTTGATATTTTTCCATTCTACTGATTTTCGGAGTCACCTAGTGCAG,8860 fluorescence intensity (a.u.)
13,AAGCGACGACCCAATTGTTTAACACGCCTTGTAGGTCCAACGGAGTCACCTAGTGCAG,8140 fluorescence intensity (a.u.)
14,TAGTTTGTATTATGTCCAACGTTTAACCGTCCATCTTATTCGGAGTCACCTAGTGCAG,8650 fluorescence intensity (a.u.)
15,TTCATTTGTGGCCAAAACGTCCAATTCAGTCATCCGTTTCCGGAGTCACCTAGTGCAG,10300 fluorescence intensity (a.u.)
16,CACATCAACCTGCACCAATCATGCCATCGAGATCACAACACGGAGTCACCTAGTGCAG,10400 fluorescence intensity (a.u.)
17,GTATTAAACTTTTAGATAGAGGCAGTACTAGTTTTTTTTTCGGAGTCACCTAGTGCAG,8600 fluorescence intensity (a.u.)
18,TAGGATATTTAGTTGTGCTTGCAATGATGTCATTGCTTGTCGGAGTCACCTAGTGCAG,8900 fluorescence intensity (a.u.)
19,AAATAAACCAAGTTCCAACGCGCACACACACACAACGAGCCGGAGTCACCTAGTGCAG,8110 fluorescence intensity (a.u.)
20,GCTAGTCTTGCTTTTAACCTTTCATATCATATAAAATCTACGGAGTCACCTAGTGCAG,9210 fluorescence intensity (a.u.)
21,GGGTTTCCTTCGTTTCGTTGTTGAACGCGGCCGCTTGCCACGGAGTCACCTAGTGCAG,9300 fluorescence intensity (a.u.)
22,ACTAATCGTCCTAGAATGTGTTATATTGTTGTAAGAGTTTCGGAGTCACCTAGTGCAG,8170 fluorescence intensity (a.u.)
23,ATTAATTCACTCCAATAGCATCATCCAATTTCCCACTCACCGGAGTCACCTAGTGCAG,8300 fluorescence intensity (a.u.)
24,TATTTGGTTTAGGTTCTTTTTGTTTCGTAAATTTCTCTATCGGAGTCACCTAGTGCAG,9420 fluorescence intensity (a.u.)
25,CTGCCTTCATACTAGCACATTCGTCAGTTATTATTAGCCTCGGAGTCACCTAGTGCAG,10600 fluorescence intensity (a.u.)
26,GATTAGTTAAGGGATGCGGGATATATGGTTTTACGGTTTGCGGAGTCACCTAGTGCAG,8760 fluorescence intensity (a.u.)
27,TTTAAAGCTGTCACCTTTTCCCATCTCTCTCTCTCTCTCTCGGAGTCACCTAGTGCAG,8220 fluorescence intensity (a.u.)

# Copied from the list:
# binding signal, GTTCGCCGTGGATTTCTTTTCTTGCGTCAGTGATACTGATCGGAGTCACCTAGTGCAG reads 8170 fluorescence intensity (a.u.)
# binding signal, TTCATTTGTGGCCAAAACGTCCAATTCAGTCATCCGTTTCCGGAGTCACCTAGTGCAG reads 10300 fluorescence intensity (a.u.)

# (continued)

row,Sequence,binding signal
1,GATCGCCGGTTCGGTTTTTTCAACTATGGTCGTCGCTAAGCGGAGTCACCTAGTGCAG,11100 fluorescence intensity (a.u.)
2,ACAAACATCCTGTAGCCCCAACATTGCTTCACTTCAGGGTCGGAGTCACCTAGTGCAG,8450 fluorescence intensity (a.u.)
3,GCCGTCCGCGCGTGGGGAGGGGCTCGCCGGCCGTCCGCGACGGAGTCACCTAGTGCAG,9020 fluorescence intensity (a.u.)
4,CCCACTCCACCTTCCCCGTTTTACACGCACCTACTCCTATCGGAGTCACCTAGTGCAG,8030 fluorescence intensity (a.u.)
5,CCTCGCACCGCCCGATAATAATACGACCAAACCAAAGACACGGAGTCACCTAGTGCAG,8120 fluorescence intensity (a.u.)
6,AGGGGAGGGATGTTTGACGCCTTTGATAATATTTCAAGTACGGAGTCACCTAGTGCAG,10700 fluorescence intensity (a.u.)
7,ATATCATGTTTATTATCTTGTTATTTTGGATTAAAATATGCGGAGTCACCTAGTGCAG,9720 fluorescence intensity (a.u.)
8,ACGTCAACGTTCAAACCAGCTCGTCACGCTGTTATTCTCTCGGAGTCACCTAGTGCAG,10400 fluorescence intensity (a.u.)
9,CGATGATGTGACTATATATGGCCGTGTTCCTCCCTCATTACGGAGTCACCTAGTGCAG,8310 fluorescence intensity (a.u.)
10,GACGGACAGGCCACTATGTATTGCTATGTATGGGTATTGCCGGAGTCACCTAGTGCAG,8730 fluorescence intensity (a.u.)
11,TTACCTCGAGTTTTGGAGCTATCCATTTGGTTCTTCAGTACGGAGTCACCTAGTGCAG,9380 fluorescence intensity (a.u.)
12,GCTAGTTGTAATATACACATAATTGTTGCTTCATTTCAACCGGAGTCACCTAGTGCAG,9790 fluorescence intensity (a.u.)
13,CTCTTTTAGCCACCCTATCCCGCCGCCACCATCACCTTCTCGGAGTCACCTAGTGCAG,8140 fluorescence intensity (a.u.)
14,GTTGTGTGCAGTGGCTGATGGGAGGAGGGAATGATCCAGACGGAGTCACCTAGTGCAG,8580 fluorescence intensity (a.u.)
15,ATATTTCTTTGTCAAGTTTGATTACTGGCTCGACATGGGGCGGAGTCACCTAGTGCAG,8620 fluorescence intensity (a.u.)
16,AATTCAAGCAAATTTGGGGTGCTTTTCTGCTTGTTTCCCCCGGAGTCACCTAGTGCAG,8220 fluorescence intensity (a.u.)
17,CCCCACCAACTCGGCTGTTTTTGGCGCTACATTACACGTCCGGAGTCACCTAGTGCAG,9790 fluorescence intensity (a.u.)
18,GGTGGACTCCAGTGGTTGCCTTGCATACTTAGCTTGCCTTCGGAGTCACCTAGTGCAG,8210 fluorescence intensity (a.u.)
19,AAACATATGAGAAAAAGTCAACGGCGTCATCTATTAAAAACGGAGTCACCTAGTGCAG,8760 fluorescence intensity (a.u.)
20,CACGCCCGTGCATATCCATCCGTTCTGCCTCGCCTACATGCGGAGTCACCTAGTGCAG,10800 fluorescence intensity (a.u.)
21,TGCATTACATGGGCCTTACCTTTGACTGTTTTGAACCCATCGGAGTCACCTAGTGCAG,12400 fluorescence intensity (a.u.)
22,TTTTATTCAAATGGAACTGTGTGACCGCTGCCTGTCCATGCGGAGTCACCTAGTGCAG,8040 fluorescence intensity (a.u.)
23,CCCGTCGACGCCTTCCACCGCCCGGCCTTGTCCTCCGTGCCGGAGTCACCTAGTGCAG,9520 fluorescence intensity (a.u.)
24,TTCAGTGTCAGCATATATACACGATTTATTTTCATGTTATCGGAGTCACCTAGTGCAG,8180 fluorescence intensity (a.u.)
25,TGCTCCTCTAGACACTACGTCAGATCCTCACATCTCTGACCGGAGTCACCTAGTGCAG,9020 fluorescence intensity (a.u.)
26,TAGGTTTTGTTCTATTCGGTTCTAGGTTCTGTTCTATTCGCGGAGTCACCTAGTGCAG,12400 fluorescence intensity (a.u.)
27,TGTTTAGAGTGGTTCAGGTTTGCCTTTTCTTTGCTTCGCTCGGAGTCACCTAGTGCAG,9770 fluorescence intensity (a.u.)
